Structures were worked out from names or drawings and are uncertain.
What was measured:
[1] = target: PI3Kα (p110α/p85α) (Homo sapiens, UniProt P42336); assay: HTRF assay, potency against active PI3Kα; assay type: biochemical; details: read-out: PI3Kα Inhibition, [ATP]=50 μM, [di-C8-PIP2]=10 μM, 30 min pre-incubation
[2] = system: Phospho-Akt(Ser473); assay: Dose response in SKOV3 cells as determined by in-cell Western; assay type: cell-based; details: read-out: pAKT Inhibition in cell Western, 1 hr
[3] = target: PI3Kβ (p110β/p85α) (Homo sapiens, UniProt P42338); assay: HTRF assay, potency against active PI3Kβ; assay type: biochemical; details: read-out: PI3Kβ Inhibition, [ATP]=50 μM, [di-C8-PIP2]=10 μM, 30 min pre-incubation
[4] = target: PI3Kγ (p120γ) (Homo sapiens, UniProt P48736); assay: HTRF assay, potency against active PI3Kγ; details: read-out: PI3Kγ Inhibition, [ATP]=50 μM, [di-C8-PIP2]=10 μM, 30 min pre-incubation
[5] = system: PI3K; assay: PI3K HCT116 cellular assay (Western blot); details: read-out: PI3K Inhibition, HCT116 colon cancer cells, 1 hour incubation

Amino acid sequences for entries named in this document (tags omitted).
UniProt P42336, whole entry: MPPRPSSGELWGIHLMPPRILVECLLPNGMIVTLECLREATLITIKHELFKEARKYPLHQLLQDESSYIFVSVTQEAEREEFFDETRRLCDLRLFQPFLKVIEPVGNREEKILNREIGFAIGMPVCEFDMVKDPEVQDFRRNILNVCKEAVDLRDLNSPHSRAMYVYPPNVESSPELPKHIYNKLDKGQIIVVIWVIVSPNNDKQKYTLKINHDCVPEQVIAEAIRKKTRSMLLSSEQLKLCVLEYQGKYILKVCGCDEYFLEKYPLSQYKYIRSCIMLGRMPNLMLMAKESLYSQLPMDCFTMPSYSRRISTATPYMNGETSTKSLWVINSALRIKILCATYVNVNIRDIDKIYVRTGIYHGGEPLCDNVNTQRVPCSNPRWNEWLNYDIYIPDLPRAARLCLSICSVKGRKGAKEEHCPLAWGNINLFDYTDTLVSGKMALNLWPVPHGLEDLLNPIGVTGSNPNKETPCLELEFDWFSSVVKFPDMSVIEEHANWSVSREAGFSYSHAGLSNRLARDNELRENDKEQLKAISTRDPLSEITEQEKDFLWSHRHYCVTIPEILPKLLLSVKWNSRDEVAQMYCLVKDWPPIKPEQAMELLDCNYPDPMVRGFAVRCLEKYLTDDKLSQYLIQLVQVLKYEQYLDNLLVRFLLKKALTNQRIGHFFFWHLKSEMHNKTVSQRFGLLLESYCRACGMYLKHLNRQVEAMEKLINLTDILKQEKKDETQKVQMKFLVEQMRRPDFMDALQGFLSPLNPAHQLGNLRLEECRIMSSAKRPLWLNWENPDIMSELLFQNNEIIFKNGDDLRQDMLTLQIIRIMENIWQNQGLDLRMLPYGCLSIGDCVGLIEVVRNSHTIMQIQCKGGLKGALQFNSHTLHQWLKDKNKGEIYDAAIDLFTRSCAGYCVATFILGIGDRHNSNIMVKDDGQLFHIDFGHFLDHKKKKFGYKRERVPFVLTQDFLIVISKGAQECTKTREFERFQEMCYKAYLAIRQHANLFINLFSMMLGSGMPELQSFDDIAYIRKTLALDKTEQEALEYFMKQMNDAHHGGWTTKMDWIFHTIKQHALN
UniProt P42338, whole entry: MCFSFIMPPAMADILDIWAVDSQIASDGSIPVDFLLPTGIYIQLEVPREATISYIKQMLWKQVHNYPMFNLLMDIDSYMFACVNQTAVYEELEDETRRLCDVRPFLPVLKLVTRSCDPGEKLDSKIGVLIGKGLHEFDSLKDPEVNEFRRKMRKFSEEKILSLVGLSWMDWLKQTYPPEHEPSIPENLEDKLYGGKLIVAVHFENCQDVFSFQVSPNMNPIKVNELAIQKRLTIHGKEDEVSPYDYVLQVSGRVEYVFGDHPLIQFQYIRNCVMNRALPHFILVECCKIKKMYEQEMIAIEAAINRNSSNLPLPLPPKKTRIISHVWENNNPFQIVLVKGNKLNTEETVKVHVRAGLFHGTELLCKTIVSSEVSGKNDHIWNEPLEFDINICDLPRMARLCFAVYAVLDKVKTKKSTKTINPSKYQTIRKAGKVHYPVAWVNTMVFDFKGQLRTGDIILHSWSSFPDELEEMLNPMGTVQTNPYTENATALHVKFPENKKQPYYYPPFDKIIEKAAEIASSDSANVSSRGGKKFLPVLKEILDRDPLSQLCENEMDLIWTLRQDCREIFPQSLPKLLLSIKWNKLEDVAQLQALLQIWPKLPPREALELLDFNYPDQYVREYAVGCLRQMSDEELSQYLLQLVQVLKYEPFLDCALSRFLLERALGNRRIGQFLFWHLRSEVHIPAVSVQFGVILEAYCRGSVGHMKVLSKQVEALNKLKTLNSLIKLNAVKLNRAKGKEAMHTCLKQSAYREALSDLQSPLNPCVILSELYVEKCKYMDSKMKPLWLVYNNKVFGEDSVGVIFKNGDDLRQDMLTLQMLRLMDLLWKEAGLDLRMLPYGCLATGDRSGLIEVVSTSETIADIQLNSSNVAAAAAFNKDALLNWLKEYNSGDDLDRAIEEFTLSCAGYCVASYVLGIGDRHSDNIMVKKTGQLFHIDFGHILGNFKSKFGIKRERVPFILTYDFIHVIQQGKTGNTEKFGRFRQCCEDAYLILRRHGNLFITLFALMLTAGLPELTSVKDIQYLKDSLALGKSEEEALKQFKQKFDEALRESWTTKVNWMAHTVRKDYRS
UniProt P48736, whole entry: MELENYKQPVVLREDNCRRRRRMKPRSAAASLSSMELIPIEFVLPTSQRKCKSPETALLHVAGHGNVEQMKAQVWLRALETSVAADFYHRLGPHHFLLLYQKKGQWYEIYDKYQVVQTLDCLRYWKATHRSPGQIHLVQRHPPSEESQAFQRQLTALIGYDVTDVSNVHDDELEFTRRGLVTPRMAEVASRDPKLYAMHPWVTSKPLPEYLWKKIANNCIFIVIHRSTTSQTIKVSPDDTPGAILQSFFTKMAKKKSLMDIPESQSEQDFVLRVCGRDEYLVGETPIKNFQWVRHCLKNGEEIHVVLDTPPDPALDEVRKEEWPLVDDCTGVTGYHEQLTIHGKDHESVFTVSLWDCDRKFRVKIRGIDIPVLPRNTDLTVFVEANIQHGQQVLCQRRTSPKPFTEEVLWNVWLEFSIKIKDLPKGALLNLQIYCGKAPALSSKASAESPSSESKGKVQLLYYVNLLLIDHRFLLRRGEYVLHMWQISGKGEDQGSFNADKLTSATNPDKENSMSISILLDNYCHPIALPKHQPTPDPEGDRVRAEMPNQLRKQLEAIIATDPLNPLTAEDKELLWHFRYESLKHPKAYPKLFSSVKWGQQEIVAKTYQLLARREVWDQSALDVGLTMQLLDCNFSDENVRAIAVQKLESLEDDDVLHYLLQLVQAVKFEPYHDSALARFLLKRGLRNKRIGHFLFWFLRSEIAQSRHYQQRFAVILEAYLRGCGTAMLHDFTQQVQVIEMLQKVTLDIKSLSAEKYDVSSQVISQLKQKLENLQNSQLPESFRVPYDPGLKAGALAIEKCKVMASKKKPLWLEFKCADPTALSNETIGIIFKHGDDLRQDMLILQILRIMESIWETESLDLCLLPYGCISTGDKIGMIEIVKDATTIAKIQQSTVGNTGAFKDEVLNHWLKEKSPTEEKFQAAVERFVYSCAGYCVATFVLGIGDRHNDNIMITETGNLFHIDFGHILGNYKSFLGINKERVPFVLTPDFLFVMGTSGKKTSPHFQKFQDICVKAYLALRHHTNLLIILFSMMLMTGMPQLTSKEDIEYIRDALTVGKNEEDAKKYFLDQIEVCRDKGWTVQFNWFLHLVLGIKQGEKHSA
UniProt P27986, whole entry partner: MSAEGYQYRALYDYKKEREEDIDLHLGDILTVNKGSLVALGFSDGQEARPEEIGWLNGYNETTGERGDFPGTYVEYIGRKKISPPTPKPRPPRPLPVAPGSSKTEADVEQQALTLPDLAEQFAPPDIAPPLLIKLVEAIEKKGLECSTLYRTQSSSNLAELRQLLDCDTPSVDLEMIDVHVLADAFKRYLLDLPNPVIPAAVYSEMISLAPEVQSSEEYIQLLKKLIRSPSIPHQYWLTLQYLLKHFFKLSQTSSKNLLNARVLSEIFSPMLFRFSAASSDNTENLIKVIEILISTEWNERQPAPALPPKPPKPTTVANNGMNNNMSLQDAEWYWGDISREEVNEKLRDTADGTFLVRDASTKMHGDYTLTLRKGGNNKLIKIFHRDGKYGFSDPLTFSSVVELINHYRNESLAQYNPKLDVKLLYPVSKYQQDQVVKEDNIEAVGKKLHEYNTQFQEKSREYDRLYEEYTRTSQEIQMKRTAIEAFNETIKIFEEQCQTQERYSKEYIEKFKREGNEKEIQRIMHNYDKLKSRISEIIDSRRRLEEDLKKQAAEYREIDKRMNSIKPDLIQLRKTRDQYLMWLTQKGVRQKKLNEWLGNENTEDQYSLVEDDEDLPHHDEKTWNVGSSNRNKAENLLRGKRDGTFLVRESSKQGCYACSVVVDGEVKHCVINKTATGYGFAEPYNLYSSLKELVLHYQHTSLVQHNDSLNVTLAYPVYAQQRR

| SMILES | IC50 [1] [nM] | EC50 [2] [nM] | IC50 [3] [nM] | IC50 [4] [nM] | EC50 [5] [nM] |
| --- | --- | --- | --- | --- | --- |
| C/C=C/C(=O)CCC(=O)N1CCC(n2nc(-c3cc4cc(O)ccc4[nH]3)c3c(N)ncnc32)CC1 | > 1000 |  |  |  |  |
| C=CC(=O)Nc1ccc(C(=O)N2CC=C(c3cc4nc(-c5cnc(N)nc5)nc(C5=CCOCC5)c4s3)CC2)cc1 | 10 to 100 | 10 to 100 | 100 to 1000 |  |  |
| C/C=C/C(=O)CCC(=O)N1CCC(c2cc3nc(-c4cccc(O)c4)nc(N4CCOCC4)c3s2)C(OC(=O)C(F)(F)F)C1 (stereo not shown) | 10 to 100 |  |  | 100 to 1000 | 100 to 500 |

From patent US20110230476A1
